Experiment [1] deals with IMPα-9-GFP (pIMP-α9:IMPα-9-GFP) (Arabidopsis thaliana) (UniProt F4KF65). Kind of experiment: co-IP.
Experiment [2] concerns the target nLuc-IMPα-9 (35S:nLuc-IMPα-9) (Arabidopsis thaliana) (UniProt F4KF65). The experiment is described as follows: split reporter.

Sequences of proteins named here, by UniProt entry; tags and fusion partners are left off. A change or cut given only in a name is not applied to a line headed by its entry.
UniProt F4KF65: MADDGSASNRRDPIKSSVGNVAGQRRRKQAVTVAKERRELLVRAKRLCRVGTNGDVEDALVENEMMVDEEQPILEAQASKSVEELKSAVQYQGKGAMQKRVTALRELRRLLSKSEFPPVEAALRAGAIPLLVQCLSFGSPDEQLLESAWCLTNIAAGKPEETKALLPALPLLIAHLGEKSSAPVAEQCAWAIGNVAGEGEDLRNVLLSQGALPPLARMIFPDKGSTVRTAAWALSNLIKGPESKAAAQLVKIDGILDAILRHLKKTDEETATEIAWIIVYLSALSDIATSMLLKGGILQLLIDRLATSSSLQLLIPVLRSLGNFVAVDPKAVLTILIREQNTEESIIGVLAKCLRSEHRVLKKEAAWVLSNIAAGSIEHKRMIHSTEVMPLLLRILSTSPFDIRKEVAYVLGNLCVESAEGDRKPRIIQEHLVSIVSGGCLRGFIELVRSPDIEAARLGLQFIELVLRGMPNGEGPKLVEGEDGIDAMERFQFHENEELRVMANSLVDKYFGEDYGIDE

These are yes or no findings as the source states them, for the method shown. In cells and extracts the contact can be indirect. Binding calls can cover weak binding; strength is not graded here. Tags and fused reporters may be left off the sequences shown.

B1: TPL-cLuc (35S:TPL-cLuc) in Arabidopsis (protein, UniProt Q94AI7 1-1131)
chain: MSSLSRELVFLILQFLDEEKFKETVHKLEQESGFFFNMKYFEDEVHNGNWDEVEKYLSGFTKVDDNRYSMKIFFEIRKQKYLEALDKHDRPKAVDILVKDLKVFSTFNEELFKEITQLLTLENFRENEQLSKYGDTKSARAIMLVELKKLIEANPLFRDKLQFPTLRNSRLRTLINQSLNWQHQLCKNPRPNPDIKTLFVDHSCGPPNGARAPSPVNNPLLGGIPKAGGFPPLGAHGPFQPTASPVPTPLAGWMSSPSSVPHPAVSAGAIALGGPSIPAALKHPRTPPTNASLDYPSADSEHVSKRTRPMGISDEVNLGVNMLPMSFSGQAHGHSPAFKAPDDLPKTVARTLSQGSSPMSMDFHPIKQTLLLVGTNVGDIGLWEVGSRERLVQKTFKVWDLSKCSMPLQAALVKEPVVSVNRVIWSPDGSLFGVAYSRHIVQLYSYHGGEDMRQHLEIDAHVGGVNDISFSTPNKQLCVITCGDDKTIKVWDAATGVKRHTFEGHEAPVYSVCPHYKENIQFIFSTALDGKIKAWLYDNMGSRVDYDAPGRWCTTMAYSADGTRLFSCGTSKDGESFIVEWNESEGAVKRTYQGFHKRSLGVVQFDTTKNRYLAAGDDFSIKFWDMDAVQLLTAIDGDGGLQASPRIRFNKEGSLLAVSGNENVIKIMANSDGLRLLHTFENISSESSKPAINSIAAAAAAAATSAGHADRSANVVSIQGMNGDSRNMVDVKPVITEESNDKSKIWKLTEVSEPSQCRSLRLPENLRVAKISRLIFTNSGNAILALASNAIHLLWKWQRNERNATGKATASLPPQQWQPASGILMTNDVAETNPEEAVPCFALSKNDSYVMSASGGKISLFNMMTFKTMATFMPPPPAATFLAFHPQDNNIIAIGMDDSTIQIYNVRVDEVKSKLKGHSKRITGLAFSNVLNVLVSSGADAQLCVWNTDGWEKQRSKVLPLPQGRPNSAPSDTRVQFHQDQAHFLVVHETQLAIYETTKLECMKQWAVRESLAPITHATFSCDSQLVYASFMDATVCVFSSANLRLRCRVNPSAYLPASLSNSNVHPLVIAAHPQEPNMFAVGLSDGGVHIFEPLESEGKWGVAPPAENGSASGAPTAPSVGASASDQPQR
With B1, the binding result in experiment [1] is “binds”.

B2: TPL-cLuc (35S:TPL-cLuc) in Nicotiana benthamiana (protein, UniProt Q94AI7 1-1131)
chain: MSSLSRELVFLILQFLDEEKFKETVHKLEQESGFFFNMKYFEDEVHNGNWDEVEKYLSGFTKVDDNRYSMKIFFEIRKQKYLEALDKHDRPKAVDILVKDLKVFSTFNEELFKEITQLLTLENFRENEQLSKYGDTKSARAIMLVELKKLIEANPLFRDKLQFPTLRNSRLRTLINQSLNWQHQLCKNPRPNPDIKTLFVDHSCGPPNGARAPSPVNNPLLGGIPKAGGFPPLGAHGPFQPTASPVPTPLAGWMSSPSSVPHPAVSAGAIALGGPSIPAALKHPRTPPTNASLDYPSADSEHVSKRTRPMGISDEVNLGVNMLPMSFSGQAHGHSPAFKAPDDLPKTVARTLSQGSSPMSMDFHPIKQTLLLVGTNVGDIGLWEVGSRERLVQKTFKVWDLSKCSMPLQAALVKEPVVSVNRVIWSPDGSLFGVAYSRHIVQLYSYHGGEDMRQHLEIDAHVGGVNDISFSTPNKQLCVITCGDDKTIKVWDAATGVKRHTFEGHEAPVYSVCPHYKENIQFIFSTALDGKIKAWLYDNMGSRVDYDAPGRWCTTMAYSADGTRLFSCGTSKDGESFIVEWNESEGAVKRTYQGFHKRSLGVVQFDTTKNRYLAAGDDFSIKFWDMDAVQLLTAIDGDGGLQASPRIRFNKEGSLLAVSGNENVIKIMANSDGLRLLHTFENISSESSKPAINSIAAAAAAAATSAGHADRSANVVSIQGMNGDSRNMVDVKPVITEESNDKSKIWKLTEVSEPSQCRSLRLPENLRVAKISRLIFTNSGNAILALASNAIHLLWKWQRNERNATGKATASLPPQQWQPASGILMTNDVAETNPEEAVPCFALSKNDSYVMSASGGKISLFNMMTFKTMATFMPPPPAATFLAFHPQDNNIIAIGMDDSTIQIYNVRVDEVKSKLKGHSKRITGLAFSNVLNVLVSSGADAQLCVWNTDGWEKQRSKVLPLPQGRPNSAPSDTRVQFHQDQAHFLVVHETQLAIYETTKLECMKQWAVRESLAPITHATFSCDSQLVYASFMDATVCVFSSANLRLRCRVNPSAYLPASLSNSNVHPLVIAAHPQEPNMFAVGLSDGGVHIFEPLESEGKWGVAPPAENGSASGAPTAPSVGASASDQPQR
For the molecule B2, the binding result in experiment [2] is “binds”.

The record behind these values is publication doi:10.1101/2024.08.29.610327.
